Reference: PubChem BioAssay AID720505 (Drosophila RNAi Screening Center, 2013)

Assay: 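Knock-downs that reduce calcium influx once internal stores are emptied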 (primary screen)
Cells: Drosophila S2R+ cells
Knock-down reagent: long dsRNA against Drosophila genes
Challenge: thapsigargin (2 µM) in calcium-free buffer to empty internal stores, then 2 mM calcium added back
Measured: 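Fluo-4 signal in 384-well plates read on a FLIPR after thapsigargin (2 µM, calcium-free) store depletion and 2 mM calcium add-back; unnormalised mean endpoint per well; screen run twice, selected wells retested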
Scale: calcium signal and retest calcium signal: higher = more calcium entry after store depletion
Call rule: 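Knock-downs counted as hits when calcium entry dropped relative to STIM1 positive and Rho1 negative controls present on each plate; roughly 1500 genes called, with reductions of differing size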
Meaning of the calls: active = called as lowering calcium entry; inactive = not called
In all, the deposit lists about 20,000 reagents; below is a random part of those that have a named target and a result. Over the whole deposit, about 2,100 (10%) were called active. 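Raw plate signals without normalisation; calls rest on control-based scores that were not deposited; replicate 2 separates called from uncalled poorly.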 The record does not give: the amount of reagent, the time to read-out.

CG6729 [DRSC02984]
- calcium signal, replicate 1: 89.4
- calcium signal, replicate 2: 151
- retest calcium signal, replicate 1: 78.1
- retest calcium signal, replicate 2: 89.1
- outcome: inactive

CG6729 [DRSC22793]
- calcium signal, replicate 1: 78.2
- calcium signal, replicate 2: 86.7
- outcome: inactive

CG18814 [DRSC10347]
- calcium signal, replicate 1: 147
- calcium signal, replicate 2: 213
- outcome: inactive

Sodq [DRSC15924]
- calcium signal, replicate 1: 258
- calcium signal, replicate 2: 185
- outcome: inactive

CG42319 [DRSC06645]
- calcium signal, replicate 1: 137
- calcium signal, replicate 2: 132
- outcome: inactive

CG42319 [DRSC06646]
- calcium signal, replicate 1: 142
- calcium signal, replicate 2: 159
- outcome: inactive

CG42319 [DRSC22426]
- calcium signal, replicate 1: 124
- calcium signal, replicate 2: 156
- outcome: inactive

CG18171 [DRSC08524]
- calcium signal, replicate 1: 62.1
- calcium signal, replicate 2: 85.7
- outcome: inactive

Part of the list above, limited to “calcium signal, replicate 1”.
Sodq [DRSC15924]	258
CG42319 [DRSC06645]	137
CG42319 [DRSC06646]	142

The results go on.
plx [DRSC12260]
- calcium signal, replicate 1: 112
- calcium signal, replicate 2: 130
- outcome: inactive

plx [DRSC12385]
- calcium signal, replicate 1: 112
- calcium signal, replicate 2: 152
- retest calcium signal, replicate 1: 8653
- retest calcium signal, replicate 2: 173
- outcome: inactive

plx [DRSC22683]
- calcium signal, replicate 1: 89.7
- calcium signal, replicate 2: 169
- outcome: inactive

stl [DRSC04396]
- calcium signal, replicate 1: 70.7
- calcium signal, replicate 2: 159
- outcome: active

CG12493 [DRSC08279]
- calcium signal, replicate 1: 103
- calcium signal, replicate 2: 83.4
- outcome: inactive

pcm [DRSC20361]
- calcium signal, replicate 1: 73.8
- calcium signal, replicate 2: 117
- outcome: active

Bbd [DRSC06709]
- calcium signal, replicate 1: 112
- calcium signal, replicate 2: 121
- outcome: inactive

S6k [DRSC11276]
- calcium signal, replicate 1: 118
- calcium signal, replicate 2: 97.4
- outcome: inactive

polybromo [DRSC14307]
- calcium signal, replicate 1: 196
- calcium signal, replicate 2: 228
- outcome: inactive

Gbs-76A [DRSC11081]
- calcium signal, replicate 1: 101
- calcium signal, replicate 2: 114
- outcome: inactive

CG15203 [DRSC19650]
- calcium signal, replicate 1: 121
- calcium signal, replicate 2: 96.8
- outcome: inactive
